# The list shows a part of the results.
# Protein sequences, listed by entry. Tags and fused reporters are not part of them. Lines headed by an entry give the natural chain unless they say otherwise; changes in a name come on top.
# UniProt O94826, whole entry, looked up: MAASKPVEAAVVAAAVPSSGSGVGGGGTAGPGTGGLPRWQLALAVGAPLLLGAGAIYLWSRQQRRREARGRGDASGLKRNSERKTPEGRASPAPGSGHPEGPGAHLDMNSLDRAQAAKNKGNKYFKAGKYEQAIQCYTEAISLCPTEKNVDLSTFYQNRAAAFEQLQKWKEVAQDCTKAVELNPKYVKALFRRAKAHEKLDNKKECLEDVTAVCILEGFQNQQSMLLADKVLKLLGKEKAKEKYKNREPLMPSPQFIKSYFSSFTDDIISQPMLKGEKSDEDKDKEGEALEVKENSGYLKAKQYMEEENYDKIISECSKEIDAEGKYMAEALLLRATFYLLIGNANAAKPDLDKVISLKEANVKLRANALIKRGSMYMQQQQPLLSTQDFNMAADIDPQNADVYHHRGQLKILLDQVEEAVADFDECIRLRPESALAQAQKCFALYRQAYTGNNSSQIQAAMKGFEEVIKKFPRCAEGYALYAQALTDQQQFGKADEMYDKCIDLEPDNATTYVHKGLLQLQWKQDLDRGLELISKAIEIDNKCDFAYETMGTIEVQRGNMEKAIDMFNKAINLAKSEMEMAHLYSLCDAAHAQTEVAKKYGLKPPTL
# UniProt Q9NZR1: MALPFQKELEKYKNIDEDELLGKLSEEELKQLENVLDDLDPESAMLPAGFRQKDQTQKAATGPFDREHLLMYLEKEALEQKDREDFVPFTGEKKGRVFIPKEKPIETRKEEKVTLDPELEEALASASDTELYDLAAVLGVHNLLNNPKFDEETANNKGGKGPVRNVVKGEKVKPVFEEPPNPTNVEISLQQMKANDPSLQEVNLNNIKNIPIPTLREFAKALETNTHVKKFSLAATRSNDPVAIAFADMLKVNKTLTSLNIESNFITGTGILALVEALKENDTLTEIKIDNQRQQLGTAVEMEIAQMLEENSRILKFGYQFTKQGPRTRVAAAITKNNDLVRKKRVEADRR
# UniProt Q9H4I3: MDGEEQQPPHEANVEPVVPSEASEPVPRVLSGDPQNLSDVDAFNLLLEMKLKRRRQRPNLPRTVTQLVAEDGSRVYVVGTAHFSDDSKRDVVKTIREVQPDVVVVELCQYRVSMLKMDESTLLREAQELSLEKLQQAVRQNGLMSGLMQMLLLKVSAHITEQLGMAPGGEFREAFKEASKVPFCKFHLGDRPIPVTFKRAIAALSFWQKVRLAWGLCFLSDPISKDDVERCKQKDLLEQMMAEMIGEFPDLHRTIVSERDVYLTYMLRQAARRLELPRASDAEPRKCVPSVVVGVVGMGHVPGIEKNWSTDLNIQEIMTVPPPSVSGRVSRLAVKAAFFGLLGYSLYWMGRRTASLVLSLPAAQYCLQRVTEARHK
# UniProt A0PJW6: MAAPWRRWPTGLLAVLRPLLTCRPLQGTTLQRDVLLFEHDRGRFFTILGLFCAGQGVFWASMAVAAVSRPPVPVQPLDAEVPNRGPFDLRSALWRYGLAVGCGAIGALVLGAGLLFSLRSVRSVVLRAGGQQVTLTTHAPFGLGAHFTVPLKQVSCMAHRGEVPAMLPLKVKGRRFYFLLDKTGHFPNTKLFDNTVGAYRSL
# UniProt Q969M1: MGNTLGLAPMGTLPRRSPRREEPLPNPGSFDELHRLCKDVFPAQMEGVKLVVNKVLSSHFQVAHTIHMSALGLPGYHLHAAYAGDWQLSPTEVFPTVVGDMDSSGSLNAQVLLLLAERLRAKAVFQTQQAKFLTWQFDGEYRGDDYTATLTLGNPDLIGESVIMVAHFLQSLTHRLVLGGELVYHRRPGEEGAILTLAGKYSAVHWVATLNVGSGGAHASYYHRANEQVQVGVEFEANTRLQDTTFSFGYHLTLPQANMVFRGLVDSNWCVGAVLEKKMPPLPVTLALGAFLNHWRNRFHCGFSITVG
# UniProt Q9NWH2: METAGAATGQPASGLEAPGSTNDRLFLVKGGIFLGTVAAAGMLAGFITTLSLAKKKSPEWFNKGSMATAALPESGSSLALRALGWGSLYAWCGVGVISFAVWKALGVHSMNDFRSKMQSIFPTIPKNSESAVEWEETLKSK
# UniProt Q9NVH6: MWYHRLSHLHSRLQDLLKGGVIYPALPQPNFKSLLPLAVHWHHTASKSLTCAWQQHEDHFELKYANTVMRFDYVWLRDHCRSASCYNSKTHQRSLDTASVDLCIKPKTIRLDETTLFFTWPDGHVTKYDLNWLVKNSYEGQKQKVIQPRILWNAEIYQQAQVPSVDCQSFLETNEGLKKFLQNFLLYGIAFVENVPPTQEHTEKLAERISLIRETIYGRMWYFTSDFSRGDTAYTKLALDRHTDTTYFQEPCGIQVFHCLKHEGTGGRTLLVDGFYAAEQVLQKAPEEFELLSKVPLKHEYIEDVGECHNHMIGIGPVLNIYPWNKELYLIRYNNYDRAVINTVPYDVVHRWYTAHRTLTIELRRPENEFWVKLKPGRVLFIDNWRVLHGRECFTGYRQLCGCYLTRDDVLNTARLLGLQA
# UniProt P06753, whole entry, looked up: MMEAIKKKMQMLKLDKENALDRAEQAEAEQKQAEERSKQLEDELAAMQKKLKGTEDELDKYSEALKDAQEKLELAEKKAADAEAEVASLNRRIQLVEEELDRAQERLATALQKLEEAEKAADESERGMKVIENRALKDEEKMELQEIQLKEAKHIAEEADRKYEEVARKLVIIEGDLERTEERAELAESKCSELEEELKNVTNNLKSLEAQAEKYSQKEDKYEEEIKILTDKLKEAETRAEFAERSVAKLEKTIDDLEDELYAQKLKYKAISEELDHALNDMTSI
# UniProt Q12888: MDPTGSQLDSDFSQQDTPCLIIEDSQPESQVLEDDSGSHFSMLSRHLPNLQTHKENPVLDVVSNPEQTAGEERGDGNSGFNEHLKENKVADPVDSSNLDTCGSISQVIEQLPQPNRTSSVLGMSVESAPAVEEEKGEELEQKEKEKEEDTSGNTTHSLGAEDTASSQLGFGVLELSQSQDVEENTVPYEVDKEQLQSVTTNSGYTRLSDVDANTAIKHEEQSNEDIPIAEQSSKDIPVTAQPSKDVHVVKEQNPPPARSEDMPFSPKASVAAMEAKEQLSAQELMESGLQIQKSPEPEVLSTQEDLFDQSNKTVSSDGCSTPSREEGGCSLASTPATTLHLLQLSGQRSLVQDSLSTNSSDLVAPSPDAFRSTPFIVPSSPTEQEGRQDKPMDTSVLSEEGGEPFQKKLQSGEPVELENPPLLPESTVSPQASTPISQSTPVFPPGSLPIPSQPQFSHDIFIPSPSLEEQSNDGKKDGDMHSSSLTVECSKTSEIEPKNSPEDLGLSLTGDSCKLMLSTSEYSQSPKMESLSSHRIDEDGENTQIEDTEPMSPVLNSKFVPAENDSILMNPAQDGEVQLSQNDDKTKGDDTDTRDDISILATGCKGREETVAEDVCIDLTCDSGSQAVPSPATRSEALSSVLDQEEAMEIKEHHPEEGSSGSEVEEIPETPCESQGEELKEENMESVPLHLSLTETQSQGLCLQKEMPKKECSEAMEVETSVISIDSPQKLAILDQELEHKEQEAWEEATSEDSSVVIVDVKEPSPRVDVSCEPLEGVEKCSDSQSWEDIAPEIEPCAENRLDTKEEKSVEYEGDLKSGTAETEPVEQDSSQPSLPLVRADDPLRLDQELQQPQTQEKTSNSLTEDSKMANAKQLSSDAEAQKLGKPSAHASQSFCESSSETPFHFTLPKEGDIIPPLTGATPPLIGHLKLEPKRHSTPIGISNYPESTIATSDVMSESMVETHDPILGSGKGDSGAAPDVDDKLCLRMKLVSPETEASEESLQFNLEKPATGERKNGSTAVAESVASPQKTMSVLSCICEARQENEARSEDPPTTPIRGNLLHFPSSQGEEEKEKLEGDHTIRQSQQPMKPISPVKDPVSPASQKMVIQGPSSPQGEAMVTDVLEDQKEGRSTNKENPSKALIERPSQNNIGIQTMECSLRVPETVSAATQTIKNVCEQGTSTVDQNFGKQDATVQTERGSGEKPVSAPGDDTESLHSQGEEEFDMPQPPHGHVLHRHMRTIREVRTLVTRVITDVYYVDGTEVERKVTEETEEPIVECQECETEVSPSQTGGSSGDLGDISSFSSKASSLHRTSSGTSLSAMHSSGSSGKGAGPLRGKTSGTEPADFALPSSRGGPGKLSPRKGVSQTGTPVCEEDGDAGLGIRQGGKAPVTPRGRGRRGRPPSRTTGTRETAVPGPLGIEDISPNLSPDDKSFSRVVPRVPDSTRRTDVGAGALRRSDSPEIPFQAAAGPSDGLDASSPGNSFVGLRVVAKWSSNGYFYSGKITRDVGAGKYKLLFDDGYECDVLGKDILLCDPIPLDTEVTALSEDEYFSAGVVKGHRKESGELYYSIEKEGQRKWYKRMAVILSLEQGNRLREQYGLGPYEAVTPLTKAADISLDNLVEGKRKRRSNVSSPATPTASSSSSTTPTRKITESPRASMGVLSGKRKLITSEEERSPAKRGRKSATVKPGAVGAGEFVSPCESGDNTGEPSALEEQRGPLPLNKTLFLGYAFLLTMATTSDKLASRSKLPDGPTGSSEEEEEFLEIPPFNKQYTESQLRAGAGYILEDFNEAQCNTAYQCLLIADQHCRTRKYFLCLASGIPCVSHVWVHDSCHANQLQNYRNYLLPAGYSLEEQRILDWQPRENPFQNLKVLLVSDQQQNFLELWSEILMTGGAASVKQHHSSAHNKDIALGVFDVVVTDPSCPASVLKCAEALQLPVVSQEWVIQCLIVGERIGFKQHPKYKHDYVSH
# UniProt P13693: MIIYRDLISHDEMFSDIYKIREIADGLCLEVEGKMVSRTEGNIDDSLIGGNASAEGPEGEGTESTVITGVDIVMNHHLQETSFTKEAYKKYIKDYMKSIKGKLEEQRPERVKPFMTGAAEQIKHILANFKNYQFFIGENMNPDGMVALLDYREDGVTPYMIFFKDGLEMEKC
# UniProt O14773: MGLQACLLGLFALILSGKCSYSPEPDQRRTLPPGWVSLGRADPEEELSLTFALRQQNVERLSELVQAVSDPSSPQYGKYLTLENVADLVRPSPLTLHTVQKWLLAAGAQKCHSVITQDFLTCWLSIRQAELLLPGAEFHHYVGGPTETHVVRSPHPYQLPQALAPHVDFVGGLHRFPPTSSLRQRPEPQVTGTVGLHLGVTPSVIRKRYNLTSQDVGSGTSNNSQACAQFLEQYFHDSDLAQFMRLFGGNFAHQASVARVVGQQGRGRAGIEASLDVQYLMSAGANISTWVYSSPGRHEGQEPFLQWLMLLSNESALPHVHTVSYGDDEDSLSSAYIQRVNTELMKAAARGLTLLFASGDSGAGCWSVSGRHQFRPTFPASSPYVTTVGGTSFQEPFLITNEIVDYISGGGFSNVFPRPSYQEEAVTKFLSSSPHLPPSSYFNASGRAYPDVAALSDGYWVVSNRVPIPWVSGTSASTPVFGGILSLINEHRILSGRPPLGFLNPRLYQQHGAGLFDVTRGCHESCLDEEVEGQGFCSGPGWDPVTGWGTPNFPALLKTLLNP
# UniProt Q96HV5: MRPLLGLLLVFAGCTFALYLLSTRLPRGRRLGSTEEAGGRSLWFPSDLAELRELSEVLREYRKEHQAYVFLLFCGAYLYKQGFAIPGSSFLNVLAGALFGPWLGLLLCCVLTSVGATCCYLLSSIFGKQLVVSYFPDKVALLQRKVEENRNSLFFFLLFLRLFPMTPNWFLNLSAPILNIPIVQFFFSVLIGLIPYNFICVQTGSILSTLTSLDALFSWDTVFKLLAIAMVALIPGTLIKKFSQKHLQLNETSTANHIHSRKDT
# UniProt Q5JU69: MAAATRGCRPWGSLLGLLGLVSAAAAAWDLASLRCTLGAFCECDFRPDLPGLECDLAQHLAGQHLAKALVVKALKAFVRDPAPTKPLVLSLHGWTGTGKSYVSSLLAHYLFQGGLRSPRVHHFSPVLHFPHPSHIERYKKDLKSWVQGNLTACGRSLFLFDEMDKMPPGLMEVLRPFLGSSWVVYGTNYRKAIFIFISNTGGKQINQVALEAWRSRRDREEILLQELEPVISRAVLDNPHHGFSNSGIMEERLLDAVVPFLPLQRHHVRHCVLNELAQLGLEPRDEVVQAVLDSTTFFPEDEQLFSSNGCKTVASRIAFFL
# UniProt O60784, whole entry, looked up: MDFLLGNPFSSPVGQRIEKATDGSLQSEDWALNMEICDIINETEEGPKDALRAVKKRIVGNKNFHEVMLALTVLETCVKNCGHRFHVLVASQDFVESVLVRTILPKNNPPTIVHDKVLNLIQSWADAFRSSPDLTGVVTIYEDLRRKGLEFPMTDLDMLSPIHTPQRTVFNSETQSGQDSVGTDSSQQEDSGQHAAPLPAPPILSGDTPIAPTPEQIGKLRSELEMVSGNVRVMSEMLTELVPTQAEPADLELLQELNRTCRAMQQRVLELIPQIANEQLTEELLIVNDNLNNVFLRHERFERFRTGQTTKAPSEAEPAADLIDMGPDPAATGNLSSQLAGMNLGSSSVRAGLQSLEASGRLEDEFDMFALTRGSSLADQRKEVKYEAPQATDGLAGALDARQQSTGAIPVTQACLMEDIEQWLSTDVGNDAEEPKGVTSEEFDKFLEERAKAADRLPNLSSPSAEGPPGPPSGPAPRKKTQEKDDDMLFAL
# UniProt Q96A57: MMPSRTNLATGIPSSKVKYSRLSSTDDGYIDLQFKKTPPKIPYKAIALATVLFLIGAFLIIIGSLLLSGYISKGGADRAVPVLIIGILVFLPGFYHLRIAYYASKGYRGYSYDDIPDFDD
# Compound: CC1=C(SC2=C1C(=N[C@H](C3=NN=C(N32)C)CC(=O)N)C4=CC=C(C=C4)Cl)C
# Assay: log2 fold change, soluble protein after heating vs DMSO (PISA); higher = thermal stabilisation; K562 lysate, 10 uM; active = over 0.2 and 3.5 SD of the protein, either way, in both replicates (recomputed)
# Outline: (§1)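 Soluble protein was defined as the supernatant remaining after 21,000xg for 90 min, following pooling of heated aliquots and adjustment to 0.5% NP-40 at 4°C. Before that, crude K562 extract at 1 mg/mL protein in PBS pH 7.4 with 1 mM MgCl2 was treated with 10 μM compound for 30 min and heated for 3 min across 48°C-58°C. Quantification used TMTpro 16plex LC-MS/MS with channel sums equalised, and values are log-two fold changes in thermal stability relative to solvent controls from duplicates.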
row,Target,log2 fold change
1,TMEM8A (UniProt Q9HCN3),inactive: 0.04
2,TMEM62 (UniProt Q0P6H9),inactive: -0.1
3,TOMM70 (UniProt O94826),inactive: 0.003
4,TNFAIP8 isoform 4 (UniProt O95379),inactive: -0.033
5,TMOD2 (UniProt Q9NZR1),inactive: -0.042
6,TRABD (UniProt Q9H4I3),inactive: 0.025
7,TMPPE (UniProt Q6ZT21),inactive: 0
8,TPCN1 isoform 3 (UniProt Q9ULQ1),inactive: 0.041
9,TOR1AIP2 (UniProt Q8NFQ8),inactive: 0.02
10,TMEM223 (UniProt A0PJW6),inactive: -0.016
11,TOMM40L (UniProt Q969M1),inactive: 0.005
12,TMEM242 (UniProt Q9NWH2),inactive: -0.001
13,TMLHE isoform 8 (UniProt Q9NVH6),inactive: -0.046
14,TNIP2 (UniProt Q8NFZ5),inactive: -0.045
15,TMX3 (UniProt Q96JJ7),inactive: -0.02
16,TPM3 (UniProt P06753),inactive: 0.008

row,Target,log2 fold change
1,TMEM44 (UniProt Q2T9K0),inactive: -0.136
2,TMX2 (UniProt Q9Y320),inactive: -0.019
3,TONSL (UniProt Q96HA7),inactive: 0.018
4,TP53BP1 isoform 2 (UniProt Q12888),inactive: 0.004
5,TPT1 (UniProt P13693),inactive: -0.006
6,TPP1 (UniProt O14773),inactive: -0.012
7,TMEM41A (UniProt Q96HV5),inactive: -0.013
8,TMTC3 (UniProt Q6ZXV5),inactive: -0.002
9,TMEM245 (UniProt Q9H330),inactive: -0.023
10,TMEM63A (UniProt O94886),inactive: -0.04
11,TOR2A (UniProt Q5JU69),inactive: 0.002
12,TOM1 (UniProt O60784),inactive: -0.01
13,TMEM259 (UniProt Q4ZIN3),inactive: 0.044
14,TMEM230 isoform 2 (UniProt Q96A57),inactive: -0.117
15,TNPO2 (UniProt O14787),inactive: 0.018
16,TMEM214 (UniProt Q6NUQ4),inactive: -0.002

# Compound: CC1=C2C(=CC=C1)N=C(N(C2=O)C3=CC=CC=C3C)CN4C=NC5=C(N=CN=C54)N
# Assay: as above
# Outline: as §1
row,Target,log2 fold change
1,TMEM8A (UniProt Q9HCN3),inactive: -0.027
2,TMEM62 (UniProt Q0P6H9),inactive: -0.017
3,TOMM70 (UniProt O94826),inactive: 0.024
4,TNFAIP8 isoform 4 (UniProt O95379),inactive: 0.106
5,TMOD2 (UniProt Q9NZR1),inactive: 0.014
6,TRABD (UniProt Q9H4I3),inactive: 0.05
7,TMPPE (UniProt Q6ZT21),inactive: 0.038
8,TPCN1 isoform 3 (UniProt Q9ULQ1),inactive: 0.054
9,TOR1AIP2 (UniProt Q8NFQ8),inactive: -0.018
10,TMEM223 (UniProt A0PJW6),inactive: -0.051
11,TOMM40L (UniProt Q969M1),inactive: -0.003
12,TMEM242 (UniProt Q9NWH2),inactive: -0.044
13,TMLHE isoform 8 (UniProt Q9NVH6),inactive: 0.015
14,TNIP2 (UniProt Q8NFZ5),inactive: -0.051
15,TMX3 (UniProt Q96JJ7),inactive: -0.008
16,TPM3 (UniProt P06753),inactive: -0.018

row,Target,log2 fold change
1,TMX2 (UniProt Q9Y320),inactive: 0.04
2,TONSL (UniProt Q96HA7),inactive: 0.045
3,TP53BP1 isoform 2 (UniProt Q12888),inactive: -0.009
4,TPT1 (UniProt P13693),inactive: -0.025
5,TPP1 (UniProt O14773),inactive: -0.025
6,TMEM41A (UniProt Q96HV5),inactive: 0.029
7,TMTC3 (UniProt Q6ZXV5),inactive: 0.02
8,TMEM245 (UniProt Q9H330),inactive: 0.03
9,TMEM63A (UniProt O94886),inactive: 0.009
10,TOR2A (UniProt Q5JU69),inactive: -0.014
11,TOM1 (UniProt O60784),inactive: 0.047
12,TMEM259 (UniProt Q4ZIN3),inactive: 0.082
13,TMEM230 isoform 2 (UniProt Q96A57),inactive: -0.164
14,TNPO2 (UniProt O14787),inactive: 0
15,TMEM214 (UniProt Q6NUQ4),inactive: 0

# Compound: Cc1sc2c(c1C)C(c1ccc(Cl)cc1)=N[C@@H](CC(=O)OC(C)(C)C)c1nnc(C)n1-2
# Assay: as above
# Outline: as §1
row,Target,log2 fold change
1,TMEM62 (UniProt Q0P6H9),inactive: -0.057
2,TOMM70 (UniProt O94826),inactive: 0.039
3,TNFAIP8 isoform 4 (UniProt O95379),inactive: -0.05
4,TMOD2 (UniProt Q9NZR1),inactive: 0.039
5,TRABD (UniProt Q9H4I3),inactive: 0.006
6,TOR1AIP2 (UniProt Q8NFQ8),inactive: 0.03
7,TMEM223 (UniProt A0PJW6),inactive: 0.118
8,TOMM40L (UniProt Q969M1),inactive: -0.022
9,TMEM242 (UniProt Q9NWH2),inactive: 0.089
10,TMLHE isoform 8 (UniProt Q9NVH6),inactive: -0.075
11,TMX3 (UniProt Q96JJ7),inactive: -0.015
12,TPM3 (UniProt P06753),inactive: 0.015
13,TMEM44 (UniProt Q2T9K0),inactive: -0.324
14,TMX2 (UniProt Q9Y320),inactive: 0.034
15,TONSL (UniProt Q96HA7),inactive: 0.04
16,TP53BP1 isoform 2 (UniProt Q12888),inactive: 0.001
17,TPT1 (UniProt P13693),inactive: 0.005
18,TPP1 (UniProt O14773),inactive: -0.017
19,TMEM41A (UniProt Q96HV5),inactive: -0.002
20,TMTC3 (UniProt Q6ZXV5),inactive: 0.035
21,TMEM245 (UniProt Q9H330),inactive: -0.068
22,TMEM63A (UniProt O94886),inactive: 0.066
23,TOR2A (UniProt Q5JU69),inactive: -0.039
24,TOM1 (UniProt O60784),inactive: -0.025
25,TMEM259 (UniProt Q4ZIN3),inactive: -0.062
26,TMEM230 isoform 2 (UniProt Q96A57),inactive: -0.076
27,TNPO2 (UniProt O14787),inactive: 0.026
28,TMEM214 (UniProt Q6NUQ4),inactive: 0.052

# From the supplement of paper PMC10849652
